Publication PMC10689503, “CaMKK2 and CHK1 phosphorylate human STN1 in response to replication stress to protect stalled forks from aberrant resection”
Positions count from the first letter of the chain named. Results are given in words; binding and its absence hold for the method and conditions named. For part of these data: Binding seen in cells or lysates may run through a third protein. Some binding calls cover weakened binding; strength is not graded here. For part of these data: Sequences can lack the tags named with a protein.

Protein sequences, listed by entry. Tags and fused reporters are not part of them. Lines headed by an entry give the natural chain unless they say otherwise; changes in a name come on top.
UniProt Q2NKJ3: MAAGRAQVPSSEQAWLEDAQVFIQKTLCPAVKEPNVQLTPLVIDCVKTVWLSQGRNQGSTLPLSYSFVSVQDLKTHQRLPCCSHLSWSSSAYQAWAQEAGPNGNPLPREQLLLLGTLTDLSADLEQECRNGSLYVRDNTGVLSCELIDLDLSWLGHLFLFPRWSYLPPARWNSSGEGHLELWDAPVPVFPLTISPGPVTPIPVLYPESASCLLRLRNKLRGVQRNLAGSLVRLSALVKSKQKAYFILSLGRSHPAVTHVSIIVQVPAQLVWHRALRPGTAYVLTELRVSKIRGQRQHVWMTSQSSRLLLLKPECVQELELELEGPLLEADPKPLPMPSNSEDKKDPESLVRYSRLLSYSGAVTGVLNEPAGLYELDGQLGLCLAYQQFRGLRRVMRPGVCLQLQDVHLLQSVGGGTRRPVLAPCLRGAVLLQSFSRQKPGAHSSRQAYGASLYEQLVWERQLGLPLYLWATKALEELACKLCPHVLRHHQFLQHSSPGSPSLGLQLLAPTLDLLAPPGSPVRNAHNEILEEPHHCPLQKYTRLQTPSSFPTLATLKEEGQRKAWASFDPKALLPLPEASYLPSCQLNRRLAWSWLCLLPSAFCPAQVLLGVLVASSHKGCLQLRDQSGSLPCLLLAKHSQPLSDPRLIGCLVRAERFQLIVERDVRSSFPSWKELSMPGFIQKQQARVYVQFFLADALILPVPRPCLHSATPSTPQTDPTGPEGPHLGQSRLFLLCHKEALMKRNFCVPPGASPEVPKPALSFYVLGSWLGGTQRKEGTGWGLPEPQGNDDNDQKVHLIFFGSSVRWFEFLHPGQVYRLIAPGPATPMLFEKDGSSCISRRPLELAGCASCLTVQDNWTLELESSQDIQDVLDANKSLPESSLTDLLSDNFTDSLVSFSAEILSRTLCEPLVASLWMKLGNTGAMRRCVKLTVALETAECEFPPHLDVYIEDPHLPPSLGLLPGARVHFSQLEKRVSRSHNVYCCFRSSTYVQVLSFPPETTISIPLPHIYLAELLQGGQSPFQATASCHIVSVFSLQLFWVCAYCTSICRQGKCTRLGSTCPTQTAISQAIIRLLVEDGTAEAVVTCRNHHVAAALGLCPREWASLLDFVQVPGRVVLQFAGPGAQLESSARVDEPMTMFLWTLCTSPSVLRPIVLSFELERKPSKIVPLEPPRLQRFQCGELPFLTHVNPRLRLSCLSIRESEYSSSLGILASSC
UniProt Q86WV5: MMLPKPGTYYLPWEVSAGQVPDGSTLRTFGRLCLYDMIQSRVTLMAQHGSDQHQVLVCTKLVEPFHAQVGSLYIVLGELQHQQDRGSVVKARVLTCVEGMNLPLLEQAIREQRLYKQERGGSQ
UniProt Q06609: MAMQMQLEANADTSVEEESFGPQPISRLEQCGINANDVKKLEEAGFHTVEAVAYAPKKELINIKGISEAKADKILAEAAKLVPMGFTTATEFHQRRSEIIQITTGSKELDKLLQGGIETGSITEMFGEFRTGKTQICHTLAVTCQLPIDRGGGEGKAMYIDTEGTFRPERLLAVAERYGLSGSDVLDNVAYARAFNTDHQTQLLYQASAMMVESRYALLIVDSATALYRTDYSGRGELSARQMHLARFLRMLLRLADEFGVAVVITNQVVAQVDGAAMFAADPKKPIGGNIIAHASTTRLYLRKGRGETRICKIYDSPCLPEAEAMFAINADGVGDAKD
UniProt P09884: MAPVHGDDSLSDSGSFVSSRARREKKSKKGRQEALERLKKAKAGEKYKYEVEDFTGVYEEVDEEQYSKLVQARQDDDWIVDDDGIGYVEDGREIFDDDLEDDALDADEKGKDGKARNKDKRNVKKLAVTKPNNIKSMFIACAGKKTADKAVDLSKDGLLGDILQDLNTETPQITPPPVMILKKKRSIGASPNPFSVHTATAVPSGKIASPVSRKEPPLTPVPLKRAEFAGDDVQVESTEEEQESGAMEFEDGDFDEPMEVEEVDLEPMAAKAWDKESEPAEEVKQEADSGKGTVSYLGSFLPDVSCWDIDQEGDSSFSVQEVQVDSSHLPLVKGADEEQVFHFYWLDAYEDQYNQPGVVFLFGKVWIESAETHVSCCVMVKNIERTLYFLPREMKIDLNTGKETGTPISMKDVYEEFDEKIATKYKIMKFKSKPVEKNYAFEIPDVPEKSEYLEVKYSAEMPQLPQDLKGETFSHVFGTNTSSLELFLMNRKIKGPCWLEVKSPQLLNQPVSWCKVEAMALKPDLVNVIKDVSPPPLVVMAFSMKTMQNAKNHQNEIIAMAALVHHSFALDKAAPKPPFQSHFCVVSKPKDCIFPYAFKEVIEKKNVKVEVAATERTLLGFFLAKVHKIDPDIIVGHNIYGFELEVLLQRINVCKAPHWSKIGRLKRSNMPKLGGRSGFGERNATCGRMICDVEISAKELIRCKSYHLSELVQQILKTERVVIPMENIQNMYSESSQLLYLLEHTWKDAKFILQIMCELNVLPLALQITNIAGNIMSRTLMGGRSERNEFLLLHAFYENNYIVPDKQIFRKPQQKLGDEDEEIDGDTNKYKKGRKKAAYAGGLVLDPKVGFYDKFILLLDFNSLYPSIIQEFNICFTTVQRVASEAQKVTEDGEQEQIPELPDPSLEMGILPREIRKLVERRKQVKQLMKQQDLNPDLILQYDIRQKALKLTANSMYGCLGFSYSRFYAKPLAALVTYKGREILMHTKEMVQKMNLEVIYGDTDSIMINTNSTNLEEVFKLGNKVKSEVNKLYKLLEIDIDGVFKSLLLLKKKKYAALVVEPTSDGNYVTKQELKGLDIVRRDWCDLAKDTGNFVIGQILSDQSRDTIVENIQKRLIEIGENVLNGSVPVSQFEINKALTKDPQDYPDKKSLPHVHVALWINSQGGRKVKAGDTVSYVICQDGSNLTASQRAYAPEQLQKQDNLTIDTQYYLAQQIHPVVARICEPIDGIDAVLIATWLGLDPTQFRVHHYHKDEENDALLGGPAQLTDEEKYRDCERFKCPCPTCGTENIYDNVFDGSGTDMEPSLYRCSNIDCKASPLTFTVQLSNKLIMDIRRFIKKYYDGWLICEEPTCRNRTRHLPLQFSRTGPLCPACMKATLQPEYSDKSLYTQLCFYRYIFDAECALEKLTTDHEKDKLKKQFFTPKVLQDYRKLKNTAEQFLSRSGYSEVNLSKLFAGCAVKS

Experiments:
[1] = biological target: CTC1-S96D-TEN1 complex (human) (UniProt Q2NKJ3+Q9H668+Q86WV5); assay: pull-down; 1 µM CST (His6 at the C-terminus of TEN1) with 1 µM RAD51, 20 min at 37 °C, 35 mM Tris-HCl pH 7.5, 10% glycerol, 0.01% Igepal, 1 mM 2-mercaptoethanol, 10 mM imidazole, 50 mM KCl; captured on His-Tag Dynabeads; SDS-PAGE, Coomassie blue; both purified
[2] = biological target: CTC1-S96A-TEN1 complex (human) (UniProt Q2NKJ3+Q9H668+Q86WV5); assay: as above
[3] = biological target: Flag-CTC1-STN1-TEN1-His6 wild-type CST complex (human) (UniProt Q2NKJ3+Q9H668+Q86WV5); assay: as above
Myc-S96D STN1 (human) = biological target: T1, Myc-S96D STN1 (human) (UniProt Q9H668); assay: co-IP; HEK293T transfected with Myc-STN1/S96D/S96A, 4 mM HU for 3 h; anti-c-Myc agarose resin; lysis buffer 0.1% NP-40, 50 mM Tris-HCl pH 7.4, 50 mM NaCl, 2 mM DTT; western blot for POLα
T1 sequence: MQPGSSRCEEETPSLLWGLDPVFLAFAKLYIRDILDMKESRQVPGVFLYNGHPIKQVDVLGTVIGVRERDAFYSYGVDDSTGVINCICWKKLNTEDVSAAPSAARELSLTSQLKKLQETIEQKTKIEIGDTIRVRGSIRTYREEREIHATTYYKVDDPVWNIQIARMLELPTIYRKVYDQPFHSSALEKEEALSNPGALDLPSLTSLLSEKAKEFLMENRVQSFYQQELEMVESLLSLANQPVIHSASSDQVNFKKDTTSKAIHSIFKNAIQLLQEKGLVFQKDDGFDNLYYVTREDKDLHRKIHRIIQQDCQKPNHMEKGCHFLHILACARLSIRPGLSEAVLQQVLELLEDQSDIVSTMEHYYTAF

Myc-S96A-STN1 (human) = biological target: T2, Myc-S96A-STN1 (human) (UniProt Q9H668); assay: as above
T2 sequence: T1 sequence with D96A

[4] = biological target: T3, Myc-tagged WT-STN1 (human) (UniProt Q9H668); assay: as above
T3 sequence: T1 sequence with D96S

Row | binding [1] | binding [2] | binding [3] | binding (Myc-S96D STN1 (human)) | binding (Myc-S96A-STN1 (human)) | binding [4] | Substance
1 | binds | binds | binds | – | – | – | RAD51 (purified protein of the affinity pulldown) (from UniProt Q06609 1-339)
2 | – | – | – | binds | binds | binds | DNA Polymerase α (POLα) (from UniProt P09884 1-1462)
